One may read the AC50 as the midpoint of the concentration-response curve, whichever way the signal moves.

We go through 59 compounds from PubChem BioAssay AID2685 (National Center for Advancing Translational Sciences (NCATS), 2010).

Structures are written as SMILES. Some of the results follow. Further columns of the screen follow, without active or inactive calls. Compounds called inactive in the main read-out are mostly missing here. The note in brackets gives the kind of curve behind each potency; many fits are weak.

The nature of the assay: qHTS Assay for Lipid Storage Modulators in Drosophila S3 Cells.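 As to cell number change: cells counted by Cell Tracker Red CMTPX staining in the red channel.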 Conditions: BODIPY lipid droplet fluorescence, 18-24 h; for cell number change: measured here: cell count max response, cells fed with added oleic acid. Put shortly:
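Drosophila S3 cells got compounds at several concentrations plus oleic acid (400 uM solution). Laser-scanning cytometry with 488 nm excitation read lipid droplets at 500-530 nm and cells at 575-640 nm. Percent activity was relative to 20 uM Triacsin C.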
(qHTS replaces the single test concentration by a dilution series.)

[1] abbreviates: measured here: lipid fluorescence (Fed channel) AC50, cells fed with added oleic acid.
Setting [2] is: measured here: cell number channel AC50, cells fed with added oleic acid.

`CC(=O)Nc1ccc(S(=O)(=O)N(C)CC(=O)Nc2ccc(F)c(F)c2F)cc1`: the cell number change was determined as 13.7%. Under setting [1], the AC50 is 2.31 µM [rising, partial curve, poor fit].
As for `O=C(O)CC(NC(=O)COc1ccc(Cl)cc1Cl)C(=O)O` (stereo not given), the cell number change was determined as 0.607%.
`Cc1ccc[n+](C(C)C(=O)Nc2ccc([N+](=O)[O-])cc2C)c1` (stereo not given): the cell number change stood at 35.2%. Also, the AC50 under setting [2] is 29.1 µM [rising, single point].
For the compound `CC(=O)N1CCCc2cc(S(=O)(=O)NC(C(=O)NC(C)c3ccccc3)C(C)C)ccc21` (stereo not given), the cell number change was -11%.
Regarding `COCc1cc(=O)n2[nH]c(C)nc2n1`, the cell number change is -26.2%.
As to `COc1ccc(CC(=O)Nn2c(-c3ccccc3)nc3ccccc3c2=O)cc1`, the cell number change was -31.4%. The AC50 under setting [2] is 18.4 µM [falling, partial curve, poor fit]. Moreover, under setting [1], the AC50 is 9.2 µM [falling, partial curve, poor fit].
`Cc1cc(C)c(NC(=O)Cn2ncc3ccccc32)c(C)c1`: the AC50 under setting [2] was 0.259 µM [falling, full curve, poor fit].
Take `O=C(CSc1ncn(-c2ccccc2)n1)N1CCc2ccccc21`: under setting [1], the AC50 was 0.461 µM [rising, partial curve, poor fit].
Regarding `O=C(COC(=O)C1CC1)Nc1ccc(Cl)cc1Cl`, the cell number change stood at 9.12%.
Same read-out and setting: the value for `CCOc1ccc(C(C(=O)NC2CCCC2)N(C(=O)c2snc(C(N)=O)c2N)C2CCCC2)cc1` (stereo not given) was 14.6%.
Regarding `CC(C)(C)N(NC(=O)Nc1ccc(Cl)cc1)C(=O)c1ccccc1`, the cell number change worked out at 116%. Also, the AC50 under setting [2] is 23.1 µM [rising, single point].
For the compound `CCN(CC)c1ccc2c(O)cc(=O)oc2c1`, the cell number change is -26.9%. Besides, under setting [1], the AC50 was 10.3 µM [falling, partial curve, poor fit].
On to `Nc1nc(-c2ccc(Oc3ccccc3)cc2)c(CC(=O)O)s1`, for which the cell number change worked out at 29.6%. Under setting [2], the AC50 was 4.11 µM [rising, full curve, poor fit]. The AC50 under setting [1] is 6.51 µM [rising, single point].
As to `CC(C)CN1CCC(=O)N(CCN=[N+]=[N-])CC1`, the cell number change was 24.9%. Moreover, under setting [1], the AC50 is 0.58 µM [rising, single point].
`Cc1cc(=O)oc2cc(NC(=O)C(C)Oc3ccccc3)ccc12` (stereo not given): the cell number change was 54.6%. Besides, the AC50 under setting [2] was 14.6 µM [rising, partial curve, poor fit].
As to `COc1ccc(/C(C)=N/NC(=O)c2ccccc2OCc2ccccc2)c(OC)c1`, the cell number change amounted to 29.2%. In addition, under setting [1], the AC50 is 29.1 µM [rising, single point].
As for `Cc1ccc(OCc2cc(C(=O)N(C)Cc3cc(C4CC4)n[nH]3)no2)cc1C`, the cell number change was found to be 1.83%. For the same compound, the AC50 under setting [1] was 1.64 µM [rising, partial curve, poor fit].
Turning to `CC(O)CN(C)CC/C=C1/c2ccccc2CSc2ccccc21` (stereo not given), the cell number change was determined as 37.1%. In addition, under setting [2], the AC50 is 0.291 µM [rising, full curve].
Take `CC1(c2nnc(Cc3ccccc3)o2)CC(c2ccc(OC(F)(F)F)cc2)=NO1` (stereo not given): the cell number change is -11.4%.
Still for that read-out and setting: to `CSc1ccc(S(=O)(=O)NCC(=O)OCC(=O)NCc2cccs2)cc1[N+](=O)[O-]` belongs -9%.
With `Clc1ccc(-n2nnnc2SCc2cn3ccccc3n2)cc1`, the cell number change was 185%. Further, the AC50 under setting [2] was 29.1 µM [rising, single point]. Besides, the AC50 under setting [1] was 29.1 µM [rising, partial curve].
Regarding `CC(=O)c1c(C)[nH]c(C(=O)NCCc2c[nH]c3ccccc23)c1C`, the cell number change stood at 11.4%. In addition, the AC50 under setting [1] is 13 µM [rising, partial curve].
Take `O=C1C=C(c2cc(C(F)(F)F)cc(C(F)(F)F)c2)C[C@@H](c2ccc3c(c2)OCO3)C1`: the cell number change is -39.7%. Also, the AC50 under setting [2] is 29.1 µM [falling, single point]. Further, the AC50 under setting [1] was 18.4 µM [falling, single point].
As to `Cc1cccc(Nc2nnc(SCC(=O)Nc3ccc(C(=O)O)cc3)s2)c1`, the cell number change is -30.7%. Also, under setting [2], the AC50 was 0.00461 µM [falling, full curve]. The AC50 under setting [1] is 0.0058 µM [falling, full curve, poor fit].
On to `CN1CCN(CCCNC(=O)c2nnc(Cc3c(F)cccc3Cl)o2)CC1`, for which the cell number change was -44.2%. Further, under setting [2], the AC50 was 9.2 µM [falling, partial curve, poor fit]. For the same compound, the AC50 under setting [1] is 20.6 µM [falling, single point].
Regarding `COc1ccc(-c2[nH]ncc2CNC(C)CCn2cccn2)cc1F` (stereo not given), the cell number change came out at 17.2%.
Regarding `COc1cc(N(C)C)c([N+](=O)[O-])cc1C(=O)NC(C)CNc1ccc([N+](=O)[O-])cc1Cl` (stereo not given), the cell number change worked out at 7.76%. In addition, the AC50 under setting [1] is 6.51 µM [rising, single point].
In the case of `CCC(c1nnnn1CCc1ccccc1)N(Cc1ccco1)Cc1cc2cccc(C)c2[nH]c1=O` (stereo not given), the cell number change is -12.8%.
Take `O=C(CSc1nnc(CNC(=O)c2ccccc2F)o1)Nc1cccc(C(F)(F)F)c1`: the cell number change stood at 7.65%. Further, the AC50 under setting [2] is 6.51 µM [rising, single point].
On to `COc1ccc(/C=C/c2ccc3cccc(O)c3n2)c(OC)c1OC`, for which the cell number change was -23.4%. For the same compound, the AC50 under setting [1] is 25.9 µM [falling, partial curve, poor fit].
As for `O=C(NCc1ccccc1)C1=C[C@H](c2ccc(Br)cc2)C[C@H](OCc2ccc(CO)cc2)O1`, the cell number change stood at 15%. Further, the AC50 under setting [1] was 23.1 µM [rising, single point].
For `O=C(O)CCc1ccc(-c2ccccc2)n1CC1CCCO1` (stereo not given), the cell number change is -47.8%. Besides, the AC50 under setting [2] was 29.1 µM [falling, single point]. Under setting [1], the AC50 was 25.9 µM [falling, single point].
As to `Cc1ccccc1NC(=O)COC(=O)c1ccc(CSc2ccc(Cl)cc2)cc1`, the cell number change was found to be 11.1%. In addition, the AC50 under setting [1] was 29.1 µM [rising, single point].
Take `S=c1[nH]nc(C2CCCCC2)n1/N=C/c1cccs1`: the cell number change is -51.1%. Further, the AC50 under setting [2] was 29.1 µM [falling, single point]. Also, the AC50 under setting [1] was 18.4 µM [falling, single point].
Take `CCn1cc(C(=O)N2CCN(c3ccccn3)CC2)c2cc(OC)c(OC)cc2c1=O`: the cell number change was determined as 15.9%. Further, under setting [1], the AC50 was 0.00411 µM [rising, full curve, poor fit].
Take `NC(=O)Cc1ccc(Nc2nnc(-c3ccccc3)c3ccccc23)cc1`: the cell number change was -20.3%. The AC50 under setting [1] was 14.6 µM [falling, partial curve, poor fit].
With `O=C(OCC(=O)N1CCCc2ccccc21)c1cc(Cl)ccc1O`, the cell number change was 41.1%. The AC50 under setting [1] is 18.4 µM [rising, single point].
With `Cc1ccc(NC(=O)c2[nH]cnc2C(=O)NN)cc1`, the AC50 is 0.146 µM [rising, full curve, poor fit] under setting [2] and 0.092 µM [rising, full curve, poor fit] under setting [1].
As for `CC1CCCCN1S(=O)(=O)c1ccc(S(=O)(=O)N2CCN(C)CC2)cc1` (stereo not given), the cell number change is -15.2%. Moreover, the AC50 under setting [1] is 29.1 µM [falling, single point].
In the case of `COC(=O)c1sccc1NC(=O)COc1ccc(C)cc1`, the cell number change is -40.4%. Moreover, under setting [2], the AC50 is 29.1 µM [falling, single point]. The AC50 under setting [1] was 32.6 µM [falling, single point].
For the compound `COc1ccc(N(C(=O)c2snc(C(N)=O)c2N)C(C(=O)NC2CCCCC2)c2ccc(C)o2)c(OC)c1` (stereo not given), the cell number change is -5.22%. Under setting [1], the AC50 was 0.58 µM [rising, single point].
Consider `CC(=O)N1CCN(c2ccc([N+](=O)[O-])c(NCc3cccnc3)c2)CC1`, for which the cell number change turned out to be 48.9%. Also, under setting [2], the AC50 is 20.6 µM [rising, partial curve, poor fit].
`COc1ccc(O[C@H]2C=C[C@@H](c3ccccc3)O[C@@H]2COC(=O)CC/C(C)=N/O[C@@H](C)c2cc(-c3c(C)cc(C)cc3C)no2)cc1`: the cell number change is -6.57%. The AC50 under setting [1] is 6.51 µM [rising, partial curve].
As for `NS(=O)(=O)c1ccc(CCNc2ccc(C(F)(F)F)cn2)cc1`, the cell number change came out at 58.7%. Besides, the AC50 under setting [2] is 11.6 µM [rising, partial curve, poor fit].
In the case of `COC(=O)c1ccc(NC(=S)N2CCN(CCO)CC2)cc1`, the cell number change stood at 3.41%. Besides, under setting [1], the AC50 was 18.4 µM [rising, partial curve].
Consider `CCOC(=O)c1nc(NNC(C)=O)sc1C`, for which the cell number change is -4.63%.
The same measure, in the same setting: to `Cc1cc(/C=N/n2c(COc3ccccc3)nc3ccccc3c2=O)c(O)c([N+](=O)[O-])c1` belongs -10.3%.
In the case of `O=C(c1ccc2c(=O)n3c(nc2c1)CCCCC3)N1CCCCC1`, the cell number change is -54.1%. The AC50 under setting [2] was 29.1 µM [falling, single point].
`COc1cc(/C=N/OCC(=O)NC2CCCCC2)ccc1OCc1ccccc1`: the cell number change came to 79.1%. Besides, the AC50 under setting [2] is 29.1 µM [rising, partial curve, poor fit].
With `O=C(c1ccc(S(=O)(=O)Nc2cccc(C(F)(F)F)c2)cc1)N1CCN(c2ccccc2O)CC1`, the cell number change is -60.7%. Moreover, the AC50 under setting [2] is 20.6 µM [falling, partial curve]. The AC50 under setting [1] is 2.06 µM [falling, partial curve].
`COCCn1nnnc1CN1CCN2CCCC2C1` (stereo not given): the cell number change is -7.15%. Also, under setting [1], the AC50 is 0.146 µM [falling, full curve, poor fit].
For `CC(C)(C)c1ccc(C(=O)N2CCN(Cc3ccccc3)CC2)cc1`, the cell number change was 1.65%.
Take `CC(=O)CCC1CC(c2ccc(Cl)cc2)=NO1` (stereo not given): the cell number change was found to be 16%. In addition, under setting [2], the AC50 was 3.66 µM [falling, single point]. Besides, the concentration at half-maximal activity (AC50) under setting [1] is 8.2 µM [rising, partial curve].
On to `COc1ccccc1N1CCN(/N=C\c2cccnc2)CC1`, for which the cell number change worked out at 18.9%.
Take `CCc1[nH]nc2c1C(c1cccnc1)C(C#N)=C(N)O2` (stereo not given): the cell number change was -89.6%. In addition, the AC50 under setting [2] was 13 µM [falling, partial curve]. Besides, the AC50 under setting [1] is 0.0259 µM [rising, full curve].
On to `Cc1nn(C(C)C(=O)NC2CCCCC2)c(=O)c2nn(-c3ccccc3)c(C)c12` (stereo not given), for which the cell number change was -4.25%. For the same compound, the half-maximal activity concentration (AC50) under setting [1] was 29.1 µM [rising, single point].
`O=C(NC1CC1)C1=C[C@H](c2ccc(C(F)(F)F)cc2)C[C@H](OCc2ccc(CO)cc2)O1`: the cell number change was -1.99%. For the same compound, the AC50 under setting [1] was 0.058 µM [rising, full curve, poor fit].
For `CCN(CC)S(=O)(=O)c1cc(C(=O)O)ccc1OC`, the cell number change was -22.1%. In addition, the AC50 under setting [1] is 29.1 µM [falling, single point].
In the case of `O=C(CNC(=O)c1ccc2c(c1)OCO2)Nc1cccc(Br)c1`, the cell number change is -2.97%. Further, under setting [1], the AC50 was 6.51 µM [rising, single point].
